# Results: the supplement of paper PMC8728848
# This is one part of the list.
# B1: Erv46-EDTA (Saccharomyces cerevisiae), P39727 (protein)
# chain: MKFLVNVALVFMVVYISYIYAAAPEHHHHHHDYDIPTTENLYFQGAMDSVVTRPQLVVDRDRHAKLELNMDVTFPSMPCDLVNLDIMDDSGEMQLDILDAGFTMSRLNSEGRPVGDATELHVGGNGDGTAPVNNDPNYCGPCYGAKDQSQNENLAQEEKVCCQDCDAVRSAYLEAGWAFFDGKNIEQCEREGYVSKINEHLNEGCRIKGSAQINRIQGNLHFAPGKPYQNAYGHFHDTSLYDKTSNLNFNHIINHLSFGKPIQSHSKLLGNDKRHGGAVVATSPLDGRQVFPDRNTHFHQFSYFAKIVPTRYEYLDNVVIETAQFSATFHSRPLAGGRDKDHPNTLHVRGGIPGMFVFFEMSPLKVINKEQ
# Experiments:
# Assay in all cases: glycan array binding signal (z-score within array); higher = stronger binding
# Conditions in all cases: glycan notation: IUPAC condensed, linker removed
# [1] = target: Fuc(a1-3)[Gal(b1-4)]GlcNAc(b1-3)Gal(b1-3)[Fuc(a1-4)]GlcNAc
# How it was run: (§1)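 The binding signal is a Z-score computed within each array. Data were drawn from 3228 arrays in the Consortium for Functional Glycomics database, restricted to those with a known protein sequence. Scores were averaged over arrays of the same protein sequence at different concentrations or buffers, and over linkers, and negative values can be taken as non-binding.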
# [2] = target: Fuc(a1-3)[Gal(b1-4)]GlcNAc(b1-3)Gal(b1-4)[Fuc(a1-3)]GlcNAc
# How it was run: as §1
# [3] = target: Fuc(a1-3)[Gal(b1-4)]GlcNAc(b1-3)Gal(b1-4)[Fuc(a1-3)]GlcNAc(b1-3)Gal(b1-4)[Fuc(a1-3)]GlcNAc
# How it was run: as §1
# [4] = target: Fuc(a1-3)[Gal(b1-4)]GlcNAc(b1-3)GalNAc
# How it was run: as §1
# [5] = target: Fuc(a1-3)[Gal(b1-4)]GlcNAc(b1-6)GalNAc
# How it was run: as §1
# [6] = target: Fuc(a1-3)[Gal(b1-4)]GlcNAc(b1-6)[Gal(b1-3)GlcNAc(b1-3)]Gal(b1-4)Glc
# How it was run: as §1
# [7] = target: Fuc(a1-3)[Gal(b1-4)]GlcNAc6S
# How it was run: as §1
# [8] = target: Fuc(a1-3)[Gal3S(b1-4)]Glc
# How it was run: as §1
# [9] = target: Fuc(a1-3)[Gal3S(b1-4)]GlcNAc
# How it was run: as §1
# [10] = target: Fuc(a1-3)[Gal3S(b1-4)]GlcNAc6S
# How it was run: as §1
# [11] = target: Fuc(a1-3)[GalNAc(b1-4)]GlcNAc
# How it was run: as §1
# [12] = target: Fuc(a1-3)[GalNAc(b1-4)]GlcNAc6S
# How it was run: as §1
# [13] = target: Fuc(a1-4)GlcNAc
# How it was run: as §1
# [14] = target: Fuc(b1-3)GlcNAc
# How it was run: as §1
# [15] = target: Gal(a1-2)Gal
# How it was run: as §1
# [16] = target: Gal(a1-3)Gal
# How it was run: as §1
# [17] = target: Gal(a1-3)Gal(b1-3)GlcNAc
# How it was run: as §1
# [18] = target: Gal(a1-3)Gal(b1-3)GlcNAc(b1-2)Man
# How it was run: as §1
# [19] = target: Gal(a1-3)Gal(b1-3)GlcNAc(b1-2)Man(a1-3)[Gal(a1-3)Gal(b1-3)GlcNAc(b1-2)Man(a1-6)]Man(b1-4)GlcNAc(b1-4)GlcNAc
# How it was run: as §1
# [20] = target: Gal(a1-3)Gal(b1-3)GlcNAc(b1-3)GalNAc
# How it was run: as §1
# [21] = target: Gal(a1-3)Gal(b1-3)GlcNAc(b1-6)GalNAc
# How it was run: as §1
# [22] = target: Gal(a1-3)Gal(b1-3)[Fuc(a1-4)]GlcNAc(b1-2)Man(a1-3)[Gal(a1-3)Gal(b1-3)[Fuc(a1-4)]GlcNAc(b1-2)Man(a1-6)]Man(b1-4)GlcNAc(b1-4)GlcNAc
# How it was run: as §1
# [23] = target: Gal(a1-3)Gal(b1-4)Glc
# How it was run: as §1
# [24] = target: Gal(a1-3)Gal(b1-4)GlcNAc
# How it was run: as §1
# [25] = target: Gal(a1-3)Gal(b1-4)GlcNAc(b1-2)Man
# How it was run: as §1
# [26] = target: Gal(a1-3)Gal(b1-4)GlcNAc(b1-2)Man(a1-3)[Gal(a1-3)Gal(b1-4)GlcNAc(b1-2)Man(a1-6)]Man(b1-4)GlcNAc(b1-4)GlcNAc
# How it was run: as §1
# [27] = target: Gal(a1-3)Gal(b1-4)GlcNAc(b1-3)GalNAc
# How it was run: as §1
# [28] = target: Gal(a1-3)Gal(b1-4)GlcNAc(b1-6)GalNAc
# How it was run: as §1
# [29] = target: Gal(a1-3)Gal(b1-4)[Fuc(a1-3)]GlcNAc
# How it was run: as §1
# [30] = target: Gal(a1-3)Gal(b1-4)[Fuc(a1-3)]GlcNAc(b1-2)Man(a1-3)[Gal(a1-3)Gal(b1-4)[Fuc(a1-3)]GlcNAc(b1-2)Man(a1-6)]Man(b1-4)GlcNAc(b1-4)GlcNAc
# How it was run: as §1
# [31] = target: Gal(a1-3)GalNAc
# How it was run: as §1
# [32] = target: Gal(a1-3)[Gal(a1-4)]Gal(b1-4)GlcNAc
# How it was run: as §1
# [33] = target: Gal(a1-4)Gal(b1-3)GlcNAc(b1-2)Man(a1-3)[Gal(a1-4)Gal(b1-3)GlcNAc(b1-2)Man(a1-6)]Man(b1-4)GlcNAc(b1-4)GlcNAc
# How it was run: as §1
# [34] = target: Gal(a1-4)Gal(b1-4)Glc
# How it was run: as §1
# [35] = target: Gal(a1-4)Gal(b1-4)GlcNAc
# How it was run: as §1
# [36] = target: Gal(a1-4)Gal(b1-4)GlcNAc(b1-2)Man(a1-3)[Gal(a1-4)Gal(b1-4)GlcNAc(b1-2)Man(a1-6)]Man(b1-4)GlcNAc(b1-4)GlcNAc
# How it was run: as §1
# [37] = target: Gal(a1-4)Gal(b1-4)GlcNAc(b1-3)Gal(b1-4)Glc
# How it was run: as §1
# [38] = target: Gal(a1-4)GlcNAc
# How it was run: as §1
binder,measurement,setting,value
B1,glycan array binding signal (z-score),[1],-0.392
same,glycan array binding signal (z-score),[2],1.01
same,glycan array binding signal (z-score),[3],0.026
same,glycan array binding signal (z-score),[4],0.767
same,glycan array binding signal (z-score),[5],1.43
same,glycan array binding signal (z-score),[6],-0.635
same,glycan array binding signal (z-score),[7],-0.007
same,glycan array binding signal (z-score),[8],0.185
same,glycan array binding signal (z-score),[9],-0.897
same,glycan array binding signal (z-score),[10],0.691
same,glycan array binding signal (z-score),[11],-0.059
same,glycan array binding signal (z-score),[12],-0.982
same,glycan array binding signal (z-score),[13],-0.577
same,glycan array binding signal (z-score),[14],-0.253
same,glycan array binding signal (z-score),[15],0.198
same,glycan array binding signal (z-score),[16],-0.004
same,glycan array binding signal (z-score),[17],-0.986
same,glycan array binding signal (z-score),[18],-0.516
same,glycan array binding signal (z-score),[19],0.432
same,glycan array binding signal (z-score),[20],0.217
same,glycan array binding signal (z-score),[21],0.196
same,glycan array binding signal (z-score),[22],0.286
same,glycan array binding signal (z-score),[23],-0.076
same,glycan array binding signal (z-score),[24],0.068
same,glycan array binding signal (z-score),[25],0.805
same,glycan array binding signal (z-score),[26],0.337
same,glycan array binding signal (z-score),[27],-0.319
same,glycan array binding signal (z-score),[28],0.246
same,glycan array binding signal (z-score),[29],-0.327
same,glycan array binding signal (z-score),[30],2.74
same,glycan array binding signal (z-score),[31],-0.543
same,glycan array binding signal (z-score),[32],-0.095
same,glycan array binding signal (z-score),[33],-0.683
same,glycan array binding signal (z-score),[34],0.54
same,glycan array binding signal (z-score),[35],0.087
same,glycan array binding signal (z-score),[36],0.047
same,glycan array binding signal (z-score),[37],-0.465
same,glycan array binding signal (z-score),[38],0.382

# Quoted at random: three entries already listed
binder,measurement,setting,value
B1,glycan array binding signal (z-score),[15],0.198
same,glycan array binding signal (z-score),[27],-0.319
same,glycan array binding signal (z-score),[16],-0.004
